{
  "source": "patent US8697641B2",
  "about": "“4-amino-4-oxobutanoyl peptide cyclic analogues, inhibitors of viral replication” (Achillion Pharmaceuticals, Inc., priority 2008, dated 2014)",
  "tested_on": "Hepatitis C replicon",
  "assay": "HCV replicon assay (NPT ELISA readout) in Huh-7 replicon-containing cells",
  "format": "cell-based, Hepatitis C virus",
  "settings": "HCV replicon in Huh-7 cells",
  "procedure": "Compounds claimed herein are tested for the ability to inhibit viral replication of the Hepatitis C replicon in cultured cells in which the HCV replicon construct has been incorporated. The HCV replicon system was described by Bartenschlager, et. al (Science, 285, pp. 110-113 (1999)). The replicon system is predictive of in vivo anti-HCV activity; compounds that are active in humans uniformly evidence activity in the replicon assay.\nIn this assay HCV replicon containing cells are treated with different concentrations of the test compound to ascertain the ability of the test compound to suppress replication of the HCV replicon. As a positive control, HCV replicon-containing cells are treated with different concentrations of interferon alpha, a known inhibitor of HCV replication. The replicon assay system includes Neomycin Phosphotransferase (NPT) as a component of the replicon itself in order to detect the transcription of replicon gene products in the host cell. Cells in which the HCV replicon is actively replicating have high levels of NPT; the level of NPT is proportional to HCV replication. […] The NPT level of each sample is measured using a captured ELISA.\nA protocol for testing compounds for the ability to inhibit viral replication of the Hepatitis C replicon cultured cells in which the replicon construct has been incorporated, follows. […]",
  "note": "Some of these results come from one statement about several compounds together. For at least one compound, name, drawing or mass did not settle the structure.",
  "data": [
    {"smiles": "C=CCCCCC[C@H](CC(=O)N1CCCCC1)C(=O)N1C[C@H](Oc2cc(-c3ccccc3)nc3cc(OC)ccc23)C[C@H]1C(=O)NC1(C(=O)NS(=O)(=O)C2CC2)CC1C=C", "note": "(stereo partly shown) [Compound 33]", "values": [
      {"measurement": "EC50", "result": "≤ 10", "unit": "µM"}
    ]}
  ]
}
